Hit rate of the full screen: of about 330,000 compounds, about 7,700 (2.3%) were called active. The inconclusive results got no clear call from the source; some entries with a clear call stand among them for comparison. Calls follow the shape of the dose curve; as a rule, active = well fitted inhibition curve with a large enough effect; inconclusive = small, poorly fitted or top-dose-only effect, or effect the other way; inactive = flat fitted curve, though single readings scatter. Potencies of inconclusive entries are doubtful fits and often do not repeat.
assay: qHTS screen for small molecules that inhibit ELG1-dependent DNA repair in human embryonic kidney (HEK293T) cells expressing luciferase-tagged ELG1; conditions: HEK293T ELG1-luciferase reporter, luminescence, 16 h, DNA damage induced by 5-fluorouridine; activity change, negative = inhibition: at 46.1 µM (top of the series); also: nearly all actives have a fitted effect of over 55% in size
Outline: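 Reporter activity after DNA damage by 5-fluorouridine is monitored. Compound-treated cells incubate 16 hr at 37 °C, then ONE-Glo is added for 30 min before luminescence reading.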
% is scaled to controls: 0 for no effect and ±100 for the full control effect; potency is read from the fitted curve at half-maximal effect.

Compound	Potency	activity change, negative = inhibition
CCn1nnc2cc(C(=O)NCCc3ccccc3F)ccc21	inconclusive: 2.59 µM [activator, partial curve]	–
COc1ccc(NC(=O)c2ccc(-n3c(C)ccc3C)cc2)c(OC)c1	inconclusive: 29.1 µM [activator, single point]	–
O=c1oc(-c2ccc(Br)o2)nc2ccccc12	inconclusive: 29.1 µM [activator, single point]	–
CCOC(=O)Cc1csc(N/C(=N/S(=O)(=O)c2ccc(Cl)cc2)c2ccccc2)n1	–	inactive: -0.74%
CCO[C@H]1OC(C(=O)N2CCN(Cc3ccc4c(c3)OCO4)CC2)=C[C@@H](c2ccc(Br)cc2)[C@@H]1CCCO	inconclusive: 29.1 µM [inhibitor, single point]	–
O=C(CNC(=O)c1ccccc1Br)N/N=C/c1cccnc1	inconclusive: 5.17 µM [activator, partial curve, poor fit]	–
O=C(NC1CCCC1)c1sc(=S)n2c1[nH]c(=O)c1ccccc12	inconclusive: 13 µM [inhibitor, partial curve, poor fit]	–
C=CCN1C(=O)C(=O)N(CC(=O)NCC(=O)Nc2ccc(F)c(F)c2F)C1=O	–	inactive: 0%
OCCNc1ncnc2ccc(Br)cc12	active: 9.2 µM	–
COc1ccc(-c2cc(C(F)(F)F)nc(S(=O)(=O)CCCC(=O)Nc3cccnc3Cl)n2)cc1OC	inconclusive: 23.1 µM [activator, partial curve]	–
CCCn1c(CN2CCN(c3cccc(Cl)c3)CC2)nc2c1c(=O)n(C)c(=O)n2C	inconclusive: 11.6 µM [inhibitor, partial curve]	–
O=c1[nH]c(C2CCN(S(=O)(=O)c3ccc(S(=O)(=O)NC4CC4)cc3)CC2)nc2c1nnn2Cc1cccc(F)c1	active: 13 µM	–
Cc1ccc(NC(=O)/C=C/c2ccc3c(c2)OCO3)nc1	inconclusive: 1.84 µM [activator, full curve]	–
CCNC(=O)COC(=O)c1cc(-c2ccco2)nc2ccccc12	inconclusive: 2.06 µM [inhibitor, full curve, poor fit]	–
COC(=O)CCC(=O)Nc1ccc(NC(C)=O)cc1	–	inactive: 0.309%
Cc1cccc(NC(=S)Nc2ccccn2)c1	inconclusive: 16.4 µM [activator, partial curve]	–
O=C(N/N=C/c1ccc(OC(F)F)cc1)c1ccc(Br)cc1	–	inactive: -7.81%
COc1cc(NC(=O)C2CCCN(c3ncnc4c3nc3n4CCCCC3)C2)cc(OC)c1OC (stereo unspecified)	active: 1.83 µM	–
C(=N\Nc1ccc2ccccc2n1)/c1ccc2c(c1)OCO2	inconclusive: 0.58 µM [activator, full curve]	–
O=C1CC(Sc2ncccn2)C(=O)N1c1ccccc1 (stereo unspecified)	–	inactive: 17.2%
Cc1cccc(NC(=O)c2ccccc2NC(=O)c2ccco2)c1	inconclusive: 29.1 µM [inhibitor, single point]	–
CN(C1CCCCC1)S(=O)(=O)c1ccc(SCC(=O)C(C)(C)C)nc1	inconclusive: 29.1 µM [inhibitor, single point]	–
Nc1nc(-c2ccc3c(c2)OCCO3)cs1	inconclusive: 7.31 µM [activator, partial curve]	–
O=P(COCCCCCOCP(=O)(c1ccccc1)c1ccccc1)(c1ccccc1)c1ccccc1	inconclusive: 13 µM [inhibitor, partial curve]	–

Compound	Potency	activity change, negative = inhibition
CC1CCc2sc(C(=O)N/N=C/c3ccc([N+](=O)[O-])cc3)cc2C1 (stereo unspecified)	–	inactive: -3.45%
CCOC(=O)N1CCC(NS(=O)(=O)c2ccc3c(c2)CCN3C(C)=O)CC1	active: 18.4 µM	–
Cc1c(-c2nc(-c3ccc(C(F)(F)F)cc3)no2)n(C)oc1=O	inconclusive: 0.651 µM [activator, partial curve]	–
Cn1c(NCc2ccccc2)nc2c1c(=O)n(Cc1ccc(Br)cc1)c(=O)n2C	active: 20.6 µM	–
CC(=O)c1cccc(N2C(=NC(=O)C3CC3)SC3CS(=O)(=O)CC32)c1 (stereo unspecified)	inconclusive: 20.6 µM [activator, single point]	–
O=C(CC1SC(=Nc2ccc(OC(F)F)cc2)N(CCC2=CCCCC2)C1=O)Nc1ccccc1F (stereo unspecified)	inconclusive: 18.4 µM [inhibitor, partial curve, poor fit]	–
COc1ccc(NC(=O)Nc2nnc(CC(=O)NCc3ccccc3)s2)cc1	inconclusive: 20.6 µM [activator, single point]	–
CC1CCCN(C(=O)CN(c2ccccc2)S(=O)(=O)c2ccc(F)cc2)C1 (stereo unspecified)	–	inactive: 20.4%
CC1(C)Cc2c(sc(NC(=O)Cc3ccccc3)c2C#N)CO1	inconclusive: 4.61 µM [inhibitor, single point]	–
Cc1c(CC(=O)N[C@@H](C)C(=O)O)c(=O)oc2cc3c(cc12)CCC(C)(C)O3	–	inactive: 14%
Cc1ccc(OCC(=O)N2CCN(S(=O)(=O)c3ccccc3[N+](=O)[O-])CC2)cc1	inconclusive: 23.1 µM [inhibitor, single point]	–
CSc1ccccc1NC(=O)COc1ccc(Cl)cc1	inconclusive: 23.1 µM [activator, single point]	–
CC(/C=N/NC(=O)c1cccs1)=C\c1ccco1	inconclusive: 7.3 µM [activator, partial curve]	–
COc1cc(-c2nnc(COC(=O)CSCC(=O)Nc3cc(C)on3)o2)cc(OC)c1OC	–	inactive: -19.8%
CCOc1ccccc1NC(=S)NC(=O)C1CCCCC1	–	inactive: -19.3%
COc1ccc(NC(=S)NC(=O)Cc2ccccc2)c(OC)c1	inconclusive: 35.5 µM [activator, single point]	–
Clc1ccc(Cn2c(/C=C/c3ccco3)nc3ccccc32)cc1	inconclusive: 20.6 µM [activator, partial curve]	–
Cc1nc(-c2cccc(NS(C)(=O)=O)c2)cs1	inconclusive: 16.4 µM [activator, partial curve, poor fit]	–
COc1ccc(-c2csc3ncnc(N4CCN(S(=O)(=O)c5cccs5)CC4)c23)cc1	inconclusive: 23.1 µM [inhibitor, partial curve, poor fit]	–
O=C(O)C1CC=CCC1C(=O)N1CCN(c2nc(-c3ccccc3Cl)c3cc(Br)ccc3n2)CC1 (stereo unspecified)	–	inactive: -4.31%
COc1ccccc1-c1cc(-c2ccc(C)cc2)nc(SCc2nnc(-c3ccccc3)o2)c1C#N	inconclusive: 3.66 µM [inhibitor, full curve]	–
CCCC(=O)NC(c1ccccc1)c1c(O)ccc2ccccc12 (stereo unspecified)	–	inactive: -4.07%
COc1cc(NC(=O)CC(C)S(=O)(=O)c2ccc3c(c2)NC(=O)CO3)cc(OC)c1OC (stereo unspecified)	–	inactive: -4.47%
Cc1noc(C)c1S(=O)(=O)N1CCCC(C(=O)N2CCc3ccccc3C2)C1 (stereo unspecified)	inconclusive: 20.6 µM [inhibitor, single point]	–

Compound	Potency	activity change, negative = inhibition
O=C1CNC(=S)N1c1nc2ccccc2s1	inconclusive: 20.6 µM [activator, partial curve]	–
CCn1c(COc2ccc3c(c2)OCO3)nnc1SCC(=O)c1ccccc1	inconclusive: 29.1 µM [inhibitor, single point]	–
COc1ccc(OC)c(C2CC(=O)c3c([nH]c(C(=O)OC(C)C)c3C)C2)c1 (stereo unspecified)	inconclusive: 25.9 µM [inhibitor, single point]	–
CCOC(=O)c1c(-c2cccs2)csc1NC(=O)CN1CC(C)OC(C)C1 (stereo unspecified)	inconclusive: 18.4 µM [inhibitor, single point]	–
CC(C)Sc1ccc([N+](=O)[O-])cc1C(=O)Nc1ccncc1	–	inactive: -12.2%
COc1ccc2cnn(-c3ccccc3C)c(=O)c2c1OC	–	inactive: -0.427%
O=C(/C=C/c1ccc(OC(F)F)cc1)Nc1cccc(S(=O)(=O)N2CCOCC2)c1	active: 23.1 µM	–
CCOC(=O)[C@@H]1[C@H]2COc3cc(OC)ccc3[C@@H]2N2C(=O)N(c3cccc(F)c3)C(=O)[C@@]12C	–	inactive: 0.893%
Cc1ccc(NC2=C(Cl)C(=O)OC2OC(C)C)cc1 (stereo unspecified)	–	inactive: 7.06%
CC(C)(C)OC(=O)N/N=C/c1c[nH]c2ccccc12	inconclusive: 18.4 µM [activator, partial curve]	–
COc1cc([N+](=O)[O-])ccc1NC(=O)COC(=O)c1n[nH]c2ccccc12	inconclusive: 20.6 µM [inhibitor, single point]	–
O=C(CCNC(=O)c1ccc([N+](=O)[O-])cc1)Nc1ccc(F)c(F)c1F	–	inactive: 7.16%
C=CCn1c(Oc2cccc(C)c2)nc2c1c(=O)n(C)c(=O)n2C	inconclusive: 29.1 µM [inhibitor, single point]	–
COCCn1c(=S)[nH]c2ncccc2c1=O	inconclusive: 29.1 µM [activator, single point]	–
CNc1ncc(C(=O)c2ccc(Cl)c(Cl)c2)s1	inconclusive: 8.91 µM [activator, partial curve, poor fit]	–
Cn1ccc(C(=O)Nc2cccnc2Cl)n1	inconclusive: 29.1 µM [activator, single point]	–
CC(OC(=O)c1ccccc1Nc1ccc(SC(F)F)cc1)C(N)=O (stereo unspecified)	–	inactive: 6.83%
CC(=O)C1=C(O)C(=O)N(c2nccs2)C1c1ccc(F)cc1 (stereo unspecified)	inconclusive: 1.16 µM [activator, single point]	–
CCCC(C)NC(=O)c1cccc(Oc2ccccc2)c1 (stereo unspecified)	–	inactive: -18.4%
COC(=O)c1sc(NC(=O)COc2c(C)cccc2C)nc1C	inconclusive: 20.6 µM [inhibitor, single point]	–
C/C(=N\NC(=O)c1ccccc1OCc1ccc(F)cc1)c1ccccn1	inconclusive: 29.1 µM [inhibitor, single point]	–
Cn1c(=O)oc2cc(S(=O)(=O)Nc3cccc(C(=O)O)c3)ccc21	–	inactive: 16.4%
CCCC(=O)Nc1c2c(nn1-c1ccc(F)cc1)CS(=O)(=O)C2	–	inactive: 14.8%

Two consecutive compounds already listed, quoted:
Compound	Potency	activity change, negative = inhibition
Cn1ccc(C(=O)Nc2cccnc2Cl)n1	inconclusive: 29.1 µM [activator, single point]	–
CC(OC(=O)c1ccccc1Nc1ccc(SC(F)F)cc1)C(N)=O (stereo unspecified)	–	inactive: 6.83%

In the list so far, two have a cyano group:
Compound	Potency	activity change, negative = inhibition
CC1(C)Cc2c(sc(NC(=O)Cc3ccccc3)c2C#N)CO1	inconclusive: 4.61 µM [inhibitor, single point]	–
COc1ccccc1-c1cc(-c2ccc(C)cc2)nc(SCc2nnc(-c3ccccc3)o2)c1C#N	inconclusive: 3.66 µM [inhibitor, full curve]	–
